In this assay the target is T1, Murine PAR-2 peptide (murine).
T1 sequence (peptide): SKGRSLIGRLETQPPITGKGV
As to the kind of experiment: Kinexa, peptide in solution.

Results are given in words; binding and its absence hold for the method and conditions named. Some binding calls cover weakened binding; strength is not graded here.

B1: Antibody Par-C (antibody, V domains shown)
VH: QVELVESGGGLVQPGGSLRLSCAASGFTFSSYAMNWVRQAPGKGLEWVSAISFSGHLTGYADSVKGRFTISRDNSKNTLYLQMNSLRAEDTAVYYCARIQNDPMDVWGQGTLVTVSS
VL: DIELTQPPSVSVAPGQTARISCSGDNLGKKYVQWYQQKPGQAPVLVIYDDSNRPSGIPERFSGSNSGNTATLTISGTQAEDEADYYCQTWDYSSIRDETNVFGGGTKLTVLG
In the case of B1, the binding result is given as “binds”.

(Values after patent US20100119506A1, “Effectors of PAR-2 Activation and Their Use in the Modulation of Inflammation” (BOEHRINGER INGELHEIM INTERNATIONAL GMBH, priority 2008, published 2010).)
